Data set [1] deals with T1, Uracil DNA N-glycosylase (UNG) (UniProt P12295).
T1 sequence (looked up, limits assumed): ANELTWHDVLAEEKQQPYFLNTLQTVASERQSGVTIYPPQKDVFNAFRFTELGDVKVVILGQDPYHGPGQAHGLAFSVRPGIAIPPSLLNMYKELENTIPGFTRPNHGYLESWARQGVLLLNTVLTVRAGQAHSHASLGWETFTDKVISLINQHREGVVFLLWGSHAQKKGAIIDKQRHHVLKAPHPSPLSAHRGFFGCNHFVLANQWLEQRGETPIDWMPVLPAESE
The data set can be described thus: enzyme reaction in vitro. The following applies: purified recombinant protein, protein details: Invitrogen.

Amino acid sequences for entries named in this document (tags omitted). A change or cut given only in a name is not applied to a line headed by its entry.
UniProt P05549: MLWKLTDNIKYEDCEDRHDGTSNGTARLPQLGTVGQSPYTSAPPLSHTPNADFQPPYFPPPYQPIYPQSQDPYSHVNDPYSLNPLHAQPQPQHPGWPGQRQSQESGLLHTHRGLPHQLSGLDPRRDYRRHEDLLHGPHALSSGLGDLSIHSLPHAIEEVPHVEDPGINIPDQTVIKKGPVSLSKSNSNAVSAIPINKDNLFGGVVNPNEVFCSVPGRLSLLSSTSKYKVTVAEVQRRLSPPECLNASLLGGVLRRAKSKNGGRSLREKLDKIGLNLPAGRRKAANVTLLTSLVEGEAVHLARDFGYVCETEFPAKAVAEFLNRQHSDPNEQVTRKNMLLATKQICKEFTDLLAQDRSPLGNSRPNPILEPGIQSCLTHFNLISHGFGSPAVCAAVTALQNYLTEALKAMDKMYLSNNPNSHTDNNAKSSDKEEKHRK

In data set [2] the target is AP-2 (transcription factor AP-2, 52 kDa) (Homo sapiens) (UniProt P05549). Put plainly: footprint. The conditions noted are these: dU in place of T on both strands (DNA; listed as RNA in the listing); UNG protection assay; 38 bp DNA stayed intact with AP-2 extract; extract binding 30 min room temperature, UNG 1 h 37 C, Tris pH 8.0, KCl, Mg; protein in an extract; protein details: cell extract containing AP-2; variant of AP2.

For part of these data: A negative result means that nothing was seen under these conditions. For part of these data: Where a protein sequence is shown, tags need not be part of it. For part of these data: At least one result comes from cells or an extract, where the contact may be indirect.

From patent publication US20040086918 come the findings set out here.

For “AAGCTTGATCGAACTGACCGCCCGCGGCCCGTGGATCC (double strand) [AP2]”, the “activity on this sequence” value in data set [1] (no uracil, not degraded with or without AP-2) is given as “not active”.

On to “AAGCUUGAUCGAACUGACCGCCCGCGGCCCGUGGAUCC / GGAUCCACGGGCCGCGGGCGGUCAGUUCGAUCAAGCUU [AuPu2]”, for which the binding result in data set [2] is given as “binds”. Also, in data set [1] (dU in place of T on both strands (DNA; listed as RNA in the listing), uracil excision then NH4OH and 65 C cleavage, two fragments produced without AP-2, variant of AP2), the “activity on this sequence” value is recorded as “active”.
